Test results published in patent publication US9518088B2 (Indiana University Research and Technology Corporation, priority 2011, dated 2016).

Assay: general procedure: hybrid (solid and solution phase) peptide synthesis; H-Gly-2ClTrt resin (loading 0.4 mmol/g; 0.71 mmol/g); EDC/HOAt (solution couplings); DEPBT/DIPEA; DIC/DMAP or DCC/DMAP for lyso-PC est
Conditions: late stage modification step

Substance | step yield [%]
PEPTIDE1{[ac].T.G.T.[X4_O_PC].G.Y}$$$$V2.0 | 79
PEPTIDE1{[ac].T.G.T.[X5_CH2_PC].G.Y}$$$$V2.0 | 73

Some peptides are written in HELM: one residue between dots, names in brackets for other building blocks, links after the first $.
